Results published in patent publication US8772200B2, “Nitrogen-containing heterocyclic compound and agricultural fungicide” (Nippon Soda Co., Ltd., priority 2010, dated 2014).
Some of these results come from one statement about several compounds together. At least one compound was matched to its structure with a doubt left.

Key:
[1] = test system: cucumber gray mold bacteria (Botrytis cinerea); test: Control test of cucumber gray mold; details: emulsion, active ingredient 100 ppm, sprayed on cucumber seedlings before inoculation; held 4 days at 20° C.
[2] = test system: apple scab bacteria (Venturia inaqualis); test: Control test of apple scab; type: in vivo; details: emulsion, active ingredient 100 ppm, sprayed on apple seedlings before inoculation; held 2 weeks at 20° C.

| Structure (SMILES) | protective value [1] | protective value [2] |
| --- | --- | --- |
| Cc1nc2c(F)cccc2cc1Oc1cccc(F)c1C(C)(O)Cc1ccc(F)cc1 (stereo not drawn) [compound 92] | at least 75% | at least 75% |
| COCc1c(Cl)cccc1Oc1cnc2c(F)cccc2c1 [compound 220] | at least 75% | at least 75% |
| CC(C)(C#N)c1ccccc1Oc1cnc2ccccc2c1 [compound 271] | at least 75% | at least 75% |
| CC(C)(C)C(C)(O)c1ncccc1Oc1cnc2c(F)cccc2c1 (stereo not drawn) [a-5] | at least 75% | at least 75% |
| CC(O)c1c(F)cccc1Oc1cnc2c(F)cccc2c1 (racemic) [compound 138] | at least 75% | at least 75% |
| CC(C)(O)C1(c2c(F)cccc2Oc2cnc3c(F)cccc3c2)CC1 [compound 431] | at least 75% | at least 75% |
| CC(C)(CCO)c1ccccc1Oc1cnc2c(F)cccc2c1 [compound 258] | at least 75% | at least 75% |
| COC(C)c1c(Cl)cccc1Oc1cnc2ccccc2c1 (stereo not drawn) [compound 188] | at least 75% | at least 75% |
| Cc1nc2c(F)cccc2cc1Oc1cccc(Cl)c1C(C)(C)O [compound 97] | at least 75% | at least 75% |
| CON(C)C(=O)C(F)(F)c1c(F)cccc1Oc1cnc2c(F)cccc2c1 [compound 295] | at least 75% | at least 75% |
| CC(=O)C(O)c1c(Cl)cccc1Oc1cnc2c(F)cccc2c1 (stereo not drawn) [compound 171] | at least 75% | at least 75% |
| CC(C)(O)c1c(F)cccc1Oc1cnc2c(Cl)cccc2c1 [compound 49] | at least 75% | at least 75% |
| CC(O)c1c(Cl)cccc1Oc1cnc2c(F)cccc2c1 (stereo not drawn) [compound 146] | at least 75% | at least 75% |
| CC(=O)c1c(Cl)cccc1Oc1cnc2ccccc2c1 [compound 381] | at least 75% | at least 75% |
| C=C(C)Cc1ccccc1C(=O)c1cnc2c(F)cccc2c1 [compound 344] | at least 75% | at least 75% |
| COC(=O)c1c(Cl)cccc1Oc1cnc2ccccc2c1 [compound 402] | at least 75% | at least 75% |
| CC(=O)C(C)(C)C(C)(C)c1c(F)cccc1Oc1cnc2c(F)cccc2c1 [compound 240] | at least 75% | at least 75% |
| CC(C)(O)C(O)c1c(Cl)cccc1Oc1cnc2c(F)cccc2c1 (stereo not drawn) [compound 173] | at least 75% | at least 75% |
| C#CC(O)c1c(Cl)cccc1Oc1cnc2c(F)cccc2c1 (stereo not drawn) [compound 164] | at least 75% | at least 75% |
| COC(C)c1c(Oc2cnc3c(F)cccc3c2)cccc1C(F)(F)F (stereo not drawn) [compound 186] | at least 75% | at least 75% |
| CC(C)(O)C(F)(F)c1c(F)cccc1Oc1cnc2c(F)cccc2c1 [compound 293] | at least 75% | at least 75% |
| C=CC(O)c1c(Cl)cccc1Oc1cnc2c(F)cccc2c1 (stereo not drawn) [compound 162] | at least 75% | at least 75% |
| CC(C)(C)C(=O)c1ncccc1Oc1cnc2c(F)cccc2c1 [a-6] | at least 75% | at least 75% |
| CC(C)(O)c1c(F)cccc1Oc1cnc2c(F)cccc2c1 [compound 36] | at least 75% | at least 75% |
| Cc1nc2cc(Cl)ccc2cc1Oc1cccc(F)c1C(C)(C)O [compound 118] | at least 75% | at least 75% |
| CC(=O)c1c(F)cccc1Oc1cnc2c(F)cccc2c1 [compound 10] | at least 75% | at least 75% |
| O=Cc1c(Cl)cccc1Oc1cnc2c(F)c(F)ccc2c1 [compound 423] | at least 75% | at least 75% |
| Cc1nc2c(F)cccc2cc1Oc1cccc(F)c1C(O)C(C)(C)C (stereo not drawn) [compound 139] | at least 75% | at least 75% |
| CC(C)(O)C(F)(F)c1c(F)cccc1Oc1cnc2ccccc2c1 [compound 291] | at least 75% | at least 75% |
| CC(C)(O)c1ccccc1Oc1cnc2c(F)cccc2c1 [compound 44] | at least 75% | at least 75% |
